Values of other authors as cited in US20240351994A1, “MAXI-K POTASSIUM CHANNEL OPENERS FOR THE TREATMENT OF FRAGILE X ASSOCIATED DISORDERS” (Kaerus Bioscience Limited, priority 2020, published 2024).
At least one structure is not confirmed: it was looked up by name or label, or the drawing left a doubt.

System: Fmr1 knockout (KO) mouse model
Conditions: single intraperitoneal (IP) injection of 2 mg/kg; cited from earlier work

Compound: COc1ccc(Cl)cc1[C@]1(F)C(=O)Nc2cc(C(F)(F)F)ccc21 [BMS-204352, (3S)-(+)-(5-chloro-2-methoxyphenyl)-1,3-dihydro-3-fluoro-6-(trifluoromethyl)-2H-indol-2-one]
- Effect on FXS phenotypes in Fmr1 KO mouse: reversed dendritic spine abnormalities, rescued hippocampal glutamate homeostasis, and reversed a range of behavioral phenotypes
